Laboratory results as given in patent US8013156B2 (Exelixis, Inc., priority 2003, dated 2011).

The chains behind the UniProt entries cited, without tags or fusion partners. Residues count along the entry.
UniProt Q02763, 23-1124 limits assumed: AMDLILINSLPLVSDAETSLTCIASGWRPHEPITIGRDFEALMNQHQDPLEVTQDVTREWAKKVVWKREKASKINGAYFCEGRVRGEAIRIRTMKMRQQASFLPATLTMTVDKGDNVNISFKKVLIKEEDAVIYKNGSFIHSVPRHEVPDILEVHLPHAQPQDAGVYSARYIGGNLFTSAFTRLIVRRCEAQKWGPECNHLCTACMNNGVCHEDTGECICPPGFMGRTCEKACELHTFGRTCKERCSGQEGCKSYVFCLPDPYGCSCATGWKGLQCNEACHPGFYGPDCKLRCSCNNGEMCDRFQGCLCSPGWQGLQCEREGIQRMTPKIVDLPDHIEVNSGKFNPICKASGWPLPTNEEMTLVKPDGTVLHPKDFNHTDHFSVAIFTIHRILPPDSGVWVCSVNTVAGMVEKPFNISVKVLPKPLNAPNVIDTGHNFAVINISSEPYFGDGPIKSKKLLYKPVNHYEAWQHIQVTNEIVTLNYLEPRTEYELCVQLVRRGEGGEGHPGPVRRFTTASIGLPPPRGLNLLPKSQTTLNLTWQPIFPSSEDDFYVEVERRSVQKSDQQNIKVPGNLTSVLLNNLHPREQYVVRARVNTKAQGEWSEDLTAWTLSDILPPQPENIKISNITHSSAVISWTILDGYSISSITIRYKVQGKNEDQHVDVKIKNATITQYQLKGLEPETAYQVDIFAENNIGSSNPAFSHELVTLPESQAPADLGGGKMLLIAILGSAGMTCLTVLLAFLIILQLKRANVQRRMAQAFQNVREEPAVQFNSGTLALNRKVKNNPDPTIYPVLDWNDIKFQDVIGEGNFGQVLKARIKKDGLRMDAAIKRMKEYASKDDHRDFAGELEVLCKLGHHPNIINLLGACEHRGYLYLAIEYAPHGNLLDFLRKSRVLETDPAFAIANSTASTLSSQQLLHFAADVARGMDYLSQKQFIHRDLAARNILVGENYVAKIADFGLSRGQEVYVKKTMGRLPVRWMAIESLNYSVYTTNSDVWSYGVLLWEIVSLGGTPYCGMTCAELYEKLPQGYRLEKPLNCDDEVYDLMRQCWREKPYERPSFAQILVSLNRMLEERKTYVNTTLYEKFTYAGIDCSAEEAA

Biological target: Tie-2 (Homo sapiens, UniProt Q02763)
Assay: Tie-2 tyrosine kinase activity assay (luciferase/luciferin ATP consumption with pEY substrate, or 33P-ATP incorporation)
Conditions: read-out: IC50 Tie-2; human enzyme Tie-2

Row | Compound | IC50
1 | CCc1cccc(NC(=O)N2CCN(c3nsnc3OCc3ccnc(N)c3)CC2)c1 | 50 to 1000 nM
2 | O=C(Nc1cc(C(F)(F)F)cc(C(F)(F)F)c1)N1CCN(c2nccnc2OCc2ccnc(Br)c2)CC1 | 50 to 1000 nM

The structures given here were assigned with low confidence; some may be wrong.
